This is one part of the list. Further columns of the screen follow, without active or inactive calls. The list favours compounds with an active or inconclusive main result. Potencies come from curve fits of mixed quality, noted in brackets.
Assay: qHTS Assay for Modulators of Lamin A Splicing
Details: HeLa LMNA splicing GFP/RFP minigene ratio, 48 h
Outline: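 S3 HeLa stable clones carrying a lamin A-EGFP splicing minigene plus DsRed2 were seeded at 600 cells/well in Opti-MEM with 2% FBS, pin-dosed and incubated 48 h at 37°C. Acumen cytometry (488 nm) gave the GFP/RFP total-intensity ratio.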

[1] = measured here: GFP splicing reporter channel
[2] = measured here: RFP viability control channel

## CN(CCOc1ccc(NS(C)(=O)=O)cc1)CCc1ccc(NS(C)(=O)=O)cc1
[1]
  AC50: 1.26 µM [falling, single point]

## CCOC(=O)c1ccc(NC(=O)CN2C(=O)c3cccnc3Oc3ccc(Cl)cc32)cc1
[1]
  AC50: 35.5 µM [falling, partial curve, poor fit]

## COc1ccc(C(C[N+](=O)[O-])n2nc(C)cc2C)cc1 (stereo not drawn)
[1]
  AC50: 35.5 µM [falling, single point]
[2]
  AC50: 5.01 µM [rising, partial curve, poor fit]

## Cc1ccc(N2CCn3c2nc2c3c(=O)n(CCc3ccccc3)c(=O)n2C)cc1C
[1]
  AC50: 0.0224 µM [rising, full curve, poor fit]

## CCOc1ccc(NC(=O)Nc2cc(OCC(F)(F)F)cc(OCC(F)(F)F)c2)cc1
[2]
  AC50: 35.5 µM [rising, single point]

## Cc1cc(C(=O)CSc2nncs2)c(C)n1-c1ccc2c(c1)OCO2
[1]
  AC50: 11.2 µM [rising, single point]
[2]
  AC50: 12.6 µM [rising, partial curve]

## Cc1n[nH]c(C)c1CCc1nc2c3ccccc3nc(SCC(=O)Nc3ccccc3F)n2n1
[1]
  AC50: 0.316 µM [rising, partial curve, poor fit]

## Cn1c(NCC2CCCO2)nc2c1c(=O)n(Cc1ccccc1)c(=O)n2C (stereo not drawn)
[1]
  AC50: 3.16 µM [rising, full curve, poor fit]
[2]
  AC50: 4.47 µM [rising, full curve]

## Cc1ccc(-c2cc(C(=O)N/N=C/c3c[nH]c4ccccc34)n[nH]2)o1
[2]
  AC50: 0.708 µM [rising, partial curve, poor fit]

## COc1cc(/C=N/NC(=O)CCC(=O)NCc2ccccc2)cc(OC)c1OC
[2]
  AC50: 35.5 µM [rising, single point]

## Cc1cc(N2CCC(C)CC2)nc(NCc2ccccc2)n1
[1]
  AC50: 11.2 µM [rising, partial curve]
[2]
  AC50: 14.1 µM [rising, partial curve]

## COCCNC(=O)C1=C(N)C(C(=O)Nc2ccc(C)c(S(=O)(=O)N3CCCCC3)c2)SC1=Nc1ccc(C)cc1C (stereo not drawn)
[2]
  AC50: 15.8 µM [rising, single point]

## CCc1ccc2c(c1)C(O)(CC(=O)c1cccs1)C(=O)N2 (stereo not drawn)
[1]
  AC50: 0.0794 µM [rising, full curve, poor fit]
[2]
  AC50: 5.62 µM [rising, partial curve, poor fit]

## CSc1nsc(SCC(=O)Nc2ccc(Br)cn2)n1
[1]
  AC50: 11.2 µM [rising, single point]
[2]
  AC50: 17.8 µM [rising, single point]

## Cc1ccc(N2C(=O)C3C4C=CC(CNC(=S)Nc5cccc(Cl)c5)(O4)C3C2=O)cc1 (stereo not drawn)
[1]
  AC50: 12.6 µM [rising, single point]
[2]
  AC50: 17.8 µM [rising, single point]

## O=S(=O)(c1ccccc1)c1nc(Nc2ccccc2N2CCOCC2)sc1Cl
[1]
  AC50: 3.98 µM [rising, partial curve, poor fit]
[2]
  AC50: 15.8 µM [rising, partial curve]

## Cc1nn(-c2ccccc2)c(Cl)c1C(=O)N1CCN(c2ncnc3c2cnn3-c2ccccc2)CC1
[2]
  AC50: 15.8 µM [rising, single point]

## CCC(=O)Oc1ccc(-c2nc(-c3cccnc3)no2)cc1
[2]
  AC50: 0.316 µM [falling, full curve, poor fit]

## CCOc1ccc(N2C(=O)C3ON(c4ccccc4)C(c4cccs4)C3C2=O)cc1 (stereo not drawn)
[1]
  AC50: 2.82 µM [falling, full curve, poor fit]

## Cc1ccc(C2=N/C(=C\c3cccs3)C(=O)N2Nc2ccccc2)cc1
[2]
  AC50: 15.8 µM [rising, single point]

## CCOc1cc(N2CCOCC2)c(OCC)cc1NC(=O)CSc1ncccn1
[1]
  AC50: 5.62 µM [falling, partial curve]

## CC(=O)c1cccc(NC(=O)N2CCCc3ccccc32)c1
[2]
  AC50: 0.141 µM [falling, full curve, poor fit]

## Cc1nc(NCc2ccco2)c2c(C)c(C)sc2n1
[1]
  AC50: 20 µM [falling, single point]
[2]
  AC50: 31.6 µM [falling, single point]

## Cc1ccc(NC(=O)c2cc(C)n(-c3ccccc3)c2C)cc1
[1]
  AC50: 35.5 µM [falling, single point]
[2]
  AC50: 25.1 µM [falling, single point]

## CCCCC(=O)NC(=S)Nc1cccc(NC(=O)c2ccco2)c1
[2]
  AC50: 0.0316 µM [rising, full curve, poor fit]

## CCc1ccccc1NC(=O)CSc1nnc([C@@H]2CCCN2C(=O)OC(C)(C)C)o1
[1]
  AC50: 7.94 µM [falling, partial curve]
[2]
  AC50: 15.8 µM [falling, partial curve, poor fit]

## Cc1ccccc1NC(=O)c1nc(-c2ccncc2)no1
[2]
  AC50: 2 µM [falling, full curve]

## CC(C)c1onc(C(=O)N(C)Cc2ccccc2)c1[N+](=O)[O-]
[2]
  AC50: 3.16 µM [falling, partial curve]

## CCc1ccc(NC(=S)/N=C(\N)Nc2nc(C)c3cc(CC)ccc3n2)cc1
[2]
  AC50: 35.5 µM [rising, single point]

## O=C(CSCc1ccccc1)N/N=C/c1ccccc1OCc1ccccc1
[1]
  AC50: 12.6 µM [rising, single point]
[2]
  AC50: 15.8 µM [rising, single point]

## Cc1cccc(NC(=S)NCc2ccc(F)cc2)c1
[1]
  AC50: 12.6 µM [rising, single point]
[2]
  AC50: 17.8 µM [rising, single point]

## CCN(CC)S(=O)(=O)c1ccc(C(=O)Nc2nnc(C(C)C)s2)cc1
[2]
  AC50: 6.31 µM [rising, partial curve, poor fit]

## CCn1cc(S(=O)(=O)c2ccccc2)c(=O)c2cc(F)c(N3CCCCCC3)cc21
[1]
  AC50: 0.224 µM [falling, full curve]
[2]
  AC50: 5.62 µM [falling, partial curve]

## CCCc1c(CC)c(=N)c2ccccc2n1C
[2]
  AC50: 14.1 µM [rising, single point]

## O=C(O)c1ccc(C(=O)c2ccc3c(c2)C(=O)N(CC2CCCO2)C3=O)cc1 (stereo not drawn)
[1]
  AC50: 17.8 µM [rising, partial curve, poor fit]

## S=C(NCCCN1CCOCC1)Nc1ccc(Cl)cc1
[1]
  AC50: 35.5 µM [rising, single point]

## Cc1cc(C(=O)N/N=C/c2cc(Cl)cc([N+](=O)[O-])c2O)c2ccccc2n1
[2]
  AC50: 22.4 µM [rising, single point]

## CCCCC1=CC2=C(c3ccco3)C(=O)C(C)(OC(=O)c3ccc(OC)cc3)C(=O)C2=CN1Cc1ccc2c(c1)OCO2 (stereo not drawn)
[1]
  AC50: 2.82 µM [falling, single point]

## O=C(CSc1ncn[nH]1)N1CCOCC1
[1]
  AC50: 0.00794 µM [falling, full curve, poor fit]
[2]
  AC50: 0.01 µM [falling, full curve, poor fit]

## O=C(NCc1cccnc1)c1ccc(COc2ccc3c(c2)CCC3)o1
[2]
  AC50: 15.8 µM [rising, partial curve, poor fit]

## CCOC(=O)c1cc2c(ccn2C)n1CC(=O)N1CCC(Cc2ccccc2)CC1
[1]
  AC50: 14.1 µM [rising, single point]
[2]
  AC50: 15.8 µM [rising, single point]

## CCn1ncc(C2=NOC(C(=O)Nc3cccnc3)C2)c1C (stereo not drawn)
[2]
  AC50: 17.8 µM [rising, single point]

## COc1cccc(N/C=C/c2onc(C)c2[N+](=O)[O-])c1
[2]
  AC50: 0.355 µM [rising, partial curve, poor fit]

## O=c1c2ccccc2nc(/C=C/c2ccccc2)n1CCc1ccccc1
[2]
  AC50: 20 µM [rising, partial curve]

## O=C(c1ccccc1)N1CCC(c2nc(-c3ccc(S(=O)(=O)NCC4CCCO4)cc3)no2)CC1 (stereo not drawn)
[2]
  AC50: 2.82 µM [rising, full curve]

## Cn1c(=O)n(C)c2cc(CNCc3ccc(C(=O)O)cc3)ccc21
[1]
  AC50: 0.0631 µM [rising, full curve, poor fit]

## CC(Sc1nc2ccccc2s1)C(=O)Nc1nnc(C(C)C)s1 (stereo not drawn)
[2]
  AC50: 31.6 µM [rising, single point]

## CC(Oc1ccc(Cl)cc1Cl)C(=O)Nc1ccc2oc(-c3ccncc3)nc2c1 (stereo not drawn)
[2]
  AC50: 2.82 µM [rising, full curve, poor fit]

## Oc1ccc(-c2nc3cnccn3c2Nc2ccc3c(c2)OCCO3)cc1
[2]
  AC50: 35.5 µM [rising, single point]

## O=C(c1ccc(Cl)c(S(=O)(=O)N2CCCCCC2)c1)N1CCOCC1
[1]
  AC50: 3.55 µM [rising, single point]

## CCOc1ccc(-c2csc(NC(=O)c3ccc(S(=O)(=O)N4CCc5ccccc5C4)cc3)n2)cc1
[2]
  AC50: 28.2 µM [rising, single point]

## COc1ccccc1Cn1c(CNS(=O)(=O)c2c(C)cc(C)cc2C)nc2cccnc21
[2]
  AC50: 0.708 µM [rising, full curve, poor fit]

## Cc1ccc(C2=NN(Cc3nnc(-c4ccccc4)o3)C(=O)SC2)cc1
[2]
  AC50: 31.6 µM [rising, single point]

## O=C(Nc1cccc(Cl)c1)Nc1ccccc1NS(=O)(=O)c1cccs1
[1]
  AC50: 11.2 µM [rising, partial curve, poor fit]
[2]
  AC50: 22.4 µM [rising, single point]

## CN(C(=O)CSc1nc2ccc(NC(=O)c3ccc(F)cc3)cc2s1)c1ccccc1
[1]
  AC50: 25.1 µM [falling, single point]

## O=C(CCCN1C(=O)/C(=C/c2ccccc2)SC1=S)Nc1ccc(O)cc1
[2]
  AC50: 3.98 µM [rising, full curve, poor fit]
